Data reported in patent publication US5574070A, “Substituted guanidines having high binding to the sigma receptor and the use thereof” (priority 1993, dated 1996).

Protein sequences, listed by entry. Tags and fused reporters are not part of them.
UniProt Q60492, whole entry: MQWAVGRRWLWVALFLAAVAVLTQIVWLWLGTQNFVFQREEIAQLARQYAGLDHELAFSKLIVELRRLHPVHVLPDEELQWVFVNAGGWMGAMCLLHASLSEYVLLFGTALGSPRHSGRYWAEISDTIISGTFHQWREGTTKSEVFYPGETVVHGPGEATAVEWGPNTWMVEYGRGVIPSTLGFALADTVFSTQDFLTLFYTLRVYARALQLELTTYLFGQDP

Biological target: T1, sigma receptor from guinea pig brain (Cavia porcellus, UniProt Q60492)
T1 construct: from tissue; host or cells: guinea pig brain membranes
Experiment: [3H]AZ-DTG binding and photoaffinity labeling of the sigma receptor
Conditions: 10 uM
Procedure: The filters were then irradiated with long-wavelength UV light for a 15 minute period. Filter-bound proteins were solubilized with 50 mM Tris pH 7.4, 0.1% sodium dodecyl sulfate. Solubilized proteins were subjected to SDS-polyacrylamide gel electrophoresis.

In the case of `CN1CC[C@]23c4c5ccc(O)c4O[C@H]2[C@@H](O)C=C[C@H]3[C@H]1C5` [morphine], the “effect on [3H]AZ-DTG labeling of the 29 kD polypeptide” value was “unaffected”.
